Results are given in words; binding and its absence hold for the method and conditions named. Some results given as binding are weak or reduced against the parent protein; the word gives no strength.
Biological target: HHARI full-length (residues 1-557) (UniProt Q9Y4X5)
Assay: SEC; full-length HHARI and E2 (or a 2-fold molar excess of UbcH7-Ub) incubated overnight at 4 °C, Superose 12 10/300 GL in 20 mM Tris HCl pH 8.0, 50 mM NaCl, 2 mM βME; fractions on SDS-PAGE; both purified

Protein sequences, listed by entry. Tags and fused reporters are not part of them.
UniProt Q9Y4X5: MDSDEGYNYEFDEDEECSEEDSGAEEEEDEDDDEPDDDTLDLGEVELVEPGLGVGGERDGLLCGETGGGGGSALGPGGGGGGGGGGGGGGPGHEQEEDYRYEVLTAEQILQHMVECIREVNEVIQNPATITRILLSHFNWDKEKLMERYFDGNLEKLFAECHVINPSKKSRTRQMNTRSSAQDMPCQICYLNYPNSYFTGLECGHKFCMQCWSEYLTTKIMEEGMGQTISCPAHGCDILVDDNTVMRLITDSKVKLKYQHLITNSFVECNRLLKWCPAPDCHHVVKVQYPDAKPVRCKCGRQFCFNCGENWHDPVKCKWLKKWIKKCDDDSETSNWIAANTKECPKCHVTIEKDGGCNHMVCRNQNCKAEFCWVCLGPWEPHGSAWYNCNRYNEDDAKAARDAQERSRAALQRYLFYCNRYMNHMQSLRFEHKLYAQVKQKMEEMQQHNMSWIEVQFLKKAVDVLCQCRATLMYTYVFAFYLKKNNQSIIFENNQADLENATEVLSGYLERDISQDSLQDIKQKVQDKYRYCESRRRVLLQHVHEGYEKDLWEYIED
UniProt O14933: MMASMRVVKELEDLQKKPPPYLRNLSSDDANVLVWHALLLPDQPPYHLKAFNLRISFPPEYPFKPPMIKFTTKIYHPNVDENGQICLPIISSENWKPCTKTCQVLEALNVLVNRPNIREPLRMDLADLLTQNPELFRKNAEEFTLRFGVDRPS
UniProt Q16763: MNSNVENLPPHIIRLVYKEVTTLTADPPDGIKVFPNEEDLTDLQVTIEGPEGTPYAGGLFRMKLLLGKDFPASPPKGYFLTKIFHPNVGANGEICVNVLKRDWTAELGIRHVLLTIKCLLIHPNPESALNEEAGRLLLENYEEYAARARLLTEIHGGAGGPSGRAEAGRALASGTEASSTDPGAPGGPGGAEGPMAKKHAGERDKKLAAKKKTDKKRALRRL

Substance | binding
UBE2L6 (from UniProt O14933 1-153) (enzyme) | binds
UBE2S (from UniProt Q16763 1-222) (enzyme) | binds

Source: paper PMC5548887
